# Laboratory results reported in the supplement of paper PMC12823440, “Inhibitors supercharge kinase turnover through native proteolytic circuits” (Nature, 2025).
# Amino acid sequences for entries named in this document (tags omitted). A change or cut given only in a name is not applied to a line headed by its entry.
# UniProt Q13131: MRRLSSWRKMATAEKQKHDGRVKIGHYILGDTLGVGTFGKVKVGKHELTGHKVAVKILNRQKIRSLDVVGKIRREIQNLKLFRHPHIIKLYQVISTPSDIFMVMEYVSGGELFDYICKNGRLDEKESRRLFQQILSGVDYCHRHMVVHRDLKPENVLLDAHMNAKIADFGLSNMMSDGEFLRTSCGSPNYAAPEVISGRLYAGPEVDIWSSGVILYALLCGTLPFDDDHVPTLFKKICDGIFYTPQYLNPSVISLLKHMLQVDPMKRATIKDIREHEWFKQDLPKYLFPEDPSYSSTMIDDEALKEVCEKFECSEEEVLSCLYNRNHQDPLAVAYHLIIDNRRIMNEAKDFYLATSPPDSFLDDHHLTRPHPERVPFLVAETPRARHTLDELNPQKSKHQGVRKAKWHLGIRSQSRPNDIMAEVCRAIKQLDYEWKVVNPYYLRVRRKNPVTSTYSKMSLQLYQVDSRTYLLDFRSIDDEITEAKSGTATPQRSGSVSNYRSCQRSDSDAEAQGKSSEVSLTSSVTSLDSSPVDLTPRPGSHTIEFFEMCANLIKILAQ
# UniProt Q06187: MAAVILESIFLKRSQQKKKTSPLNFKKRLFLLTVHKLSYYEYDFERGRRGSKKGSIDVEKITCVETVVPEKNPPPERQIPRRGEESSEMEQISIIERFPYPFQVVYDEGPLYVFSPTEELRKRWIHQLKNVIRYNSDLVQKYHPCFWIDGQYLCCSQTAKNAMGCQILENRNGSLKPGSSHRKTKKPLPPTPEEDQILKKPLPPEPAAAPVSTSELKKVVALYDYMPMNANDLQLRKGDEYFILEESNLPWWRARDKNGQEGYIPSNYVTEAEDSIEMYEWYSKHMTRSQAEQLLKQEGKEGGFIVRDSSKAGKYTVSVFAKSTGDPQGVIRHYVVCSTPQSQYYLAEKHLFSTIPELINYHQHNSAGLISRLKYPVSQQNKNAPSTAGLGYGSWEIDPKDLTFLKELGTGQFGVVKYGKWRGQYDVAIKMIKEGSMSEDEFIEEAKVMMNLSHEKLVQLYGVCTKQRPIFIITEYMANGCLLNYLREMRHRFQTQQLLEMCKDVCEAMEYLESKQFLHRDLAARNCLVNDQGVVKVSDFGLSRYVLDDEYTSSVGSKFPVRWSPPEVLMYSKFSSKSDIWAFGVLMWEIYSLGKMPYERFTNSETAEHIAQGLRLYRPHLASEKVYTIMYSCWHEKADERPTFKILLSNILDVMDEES
# UniProt P11362, whole entry, looked up: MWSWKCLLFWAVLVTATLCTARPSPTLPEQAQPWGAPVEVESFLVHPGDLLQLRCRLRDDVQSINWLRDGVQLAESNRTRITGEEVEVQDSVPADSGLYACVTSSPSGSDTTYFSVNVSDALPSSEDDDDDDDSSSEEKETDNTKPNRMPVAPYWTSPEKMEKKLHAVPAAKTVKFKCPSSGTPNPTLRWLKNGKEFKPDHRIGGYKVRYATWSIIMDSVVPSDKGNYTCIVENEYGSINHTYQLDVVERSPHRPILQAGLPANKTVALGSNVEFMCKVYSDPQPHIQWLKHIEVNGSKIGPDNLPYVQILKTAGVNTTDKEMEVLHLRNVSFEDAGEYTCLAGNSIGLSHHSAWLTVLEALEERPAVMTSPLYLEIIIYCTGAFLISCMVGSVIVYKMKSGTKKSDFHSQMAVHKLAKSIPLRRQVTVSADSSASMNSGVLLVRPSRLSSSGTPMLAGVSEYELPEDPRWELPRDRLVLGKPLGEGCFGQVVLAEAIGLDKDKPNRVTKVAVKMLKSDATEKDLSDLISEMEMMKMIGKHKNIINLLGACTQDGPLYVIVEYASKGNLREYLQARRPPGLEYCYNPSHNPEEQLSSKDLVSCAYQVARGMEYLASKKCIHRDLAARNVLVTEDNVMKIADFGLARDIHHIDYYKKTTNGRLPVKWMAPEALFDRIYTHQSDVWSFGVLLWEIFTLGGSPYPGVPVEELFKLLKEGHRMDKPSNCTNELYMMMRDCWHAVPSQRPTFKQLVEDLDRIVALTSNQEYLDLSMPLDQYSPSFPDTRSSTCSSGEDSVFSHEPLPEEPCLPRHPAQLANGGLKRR
# UniProt P06239: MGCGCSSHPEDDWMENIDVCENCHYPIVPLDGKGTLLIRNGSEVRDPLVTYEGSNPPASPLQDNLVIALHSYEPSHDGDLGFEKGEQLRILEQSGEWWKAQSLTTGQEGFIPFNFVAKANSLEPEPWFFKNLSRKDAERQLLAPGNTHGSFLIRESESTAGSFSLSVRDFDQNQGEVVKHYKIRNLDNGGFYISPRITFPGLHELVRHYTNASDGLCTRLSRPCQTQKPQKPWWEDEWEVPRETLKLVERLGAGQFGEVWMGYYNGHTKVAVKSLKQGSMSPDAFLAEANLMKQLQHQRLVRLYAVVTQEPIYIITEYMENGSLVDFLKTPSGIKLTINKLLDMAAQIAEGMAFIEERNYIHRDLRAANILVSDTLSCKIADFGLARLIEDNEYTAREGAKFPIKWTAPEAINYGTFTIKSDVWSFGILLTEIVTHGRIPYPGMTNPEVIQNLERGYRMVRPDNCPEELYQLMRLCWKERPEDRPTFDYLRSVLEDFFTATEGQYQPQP
# UniProt P48730: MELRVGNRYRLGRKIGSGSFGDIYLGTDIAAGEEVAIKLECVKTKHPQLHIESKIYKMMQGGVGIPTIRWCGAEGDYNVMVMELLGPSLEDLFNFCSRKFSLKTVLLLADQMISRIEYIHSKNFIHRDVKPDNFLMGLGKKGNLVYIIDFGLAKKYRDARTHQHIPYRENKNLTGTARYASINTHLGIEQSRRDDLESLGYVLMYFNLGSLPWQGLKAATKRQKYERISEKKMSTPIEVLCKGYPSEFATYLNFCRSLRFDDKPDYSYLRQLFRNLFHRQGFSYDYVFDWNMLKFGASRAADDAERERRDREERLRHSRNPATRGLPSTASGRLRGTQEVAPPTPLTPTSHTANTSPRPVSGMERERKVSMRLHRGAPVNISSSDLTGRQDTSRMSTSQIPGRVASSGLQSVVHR
# UniProt P15056, whole entry, looked up: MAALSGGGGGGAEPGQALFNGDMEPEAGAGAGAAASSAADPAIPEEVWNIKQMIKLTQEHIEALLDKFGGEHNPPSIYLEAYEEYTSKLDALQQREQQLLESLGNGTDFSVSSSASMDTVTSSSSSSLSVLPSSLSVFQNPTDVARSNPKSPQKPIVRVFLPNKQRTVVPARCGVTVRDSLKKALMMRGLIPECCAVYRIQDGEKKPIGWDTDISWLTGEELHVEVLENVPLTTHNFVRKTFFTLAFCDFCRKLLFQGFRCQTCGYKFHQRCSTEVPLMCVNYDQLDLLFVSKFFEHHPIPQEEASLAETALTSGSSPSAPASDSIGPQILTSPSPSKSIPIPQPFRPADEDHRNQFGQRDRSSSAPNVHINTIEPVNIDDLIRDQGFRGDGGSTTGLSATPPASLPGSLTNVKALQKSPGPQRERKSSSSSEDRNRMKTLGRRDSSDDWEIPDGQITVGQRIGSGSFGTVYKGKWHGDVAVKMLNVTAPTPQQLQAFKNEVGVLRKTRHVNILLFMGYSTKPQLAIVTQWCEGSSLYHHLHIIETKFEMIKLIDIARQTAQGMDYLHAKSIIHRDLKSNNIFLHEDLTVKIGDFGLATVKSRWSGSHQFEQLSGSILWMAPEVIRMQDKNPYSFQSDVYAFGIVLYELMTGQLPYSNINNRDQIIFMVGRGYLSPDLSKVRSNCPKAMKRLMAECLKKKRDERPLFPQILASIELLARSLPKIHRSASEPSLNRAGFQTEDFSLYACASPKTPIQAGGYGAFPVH
# UniProt P00519, whole entry: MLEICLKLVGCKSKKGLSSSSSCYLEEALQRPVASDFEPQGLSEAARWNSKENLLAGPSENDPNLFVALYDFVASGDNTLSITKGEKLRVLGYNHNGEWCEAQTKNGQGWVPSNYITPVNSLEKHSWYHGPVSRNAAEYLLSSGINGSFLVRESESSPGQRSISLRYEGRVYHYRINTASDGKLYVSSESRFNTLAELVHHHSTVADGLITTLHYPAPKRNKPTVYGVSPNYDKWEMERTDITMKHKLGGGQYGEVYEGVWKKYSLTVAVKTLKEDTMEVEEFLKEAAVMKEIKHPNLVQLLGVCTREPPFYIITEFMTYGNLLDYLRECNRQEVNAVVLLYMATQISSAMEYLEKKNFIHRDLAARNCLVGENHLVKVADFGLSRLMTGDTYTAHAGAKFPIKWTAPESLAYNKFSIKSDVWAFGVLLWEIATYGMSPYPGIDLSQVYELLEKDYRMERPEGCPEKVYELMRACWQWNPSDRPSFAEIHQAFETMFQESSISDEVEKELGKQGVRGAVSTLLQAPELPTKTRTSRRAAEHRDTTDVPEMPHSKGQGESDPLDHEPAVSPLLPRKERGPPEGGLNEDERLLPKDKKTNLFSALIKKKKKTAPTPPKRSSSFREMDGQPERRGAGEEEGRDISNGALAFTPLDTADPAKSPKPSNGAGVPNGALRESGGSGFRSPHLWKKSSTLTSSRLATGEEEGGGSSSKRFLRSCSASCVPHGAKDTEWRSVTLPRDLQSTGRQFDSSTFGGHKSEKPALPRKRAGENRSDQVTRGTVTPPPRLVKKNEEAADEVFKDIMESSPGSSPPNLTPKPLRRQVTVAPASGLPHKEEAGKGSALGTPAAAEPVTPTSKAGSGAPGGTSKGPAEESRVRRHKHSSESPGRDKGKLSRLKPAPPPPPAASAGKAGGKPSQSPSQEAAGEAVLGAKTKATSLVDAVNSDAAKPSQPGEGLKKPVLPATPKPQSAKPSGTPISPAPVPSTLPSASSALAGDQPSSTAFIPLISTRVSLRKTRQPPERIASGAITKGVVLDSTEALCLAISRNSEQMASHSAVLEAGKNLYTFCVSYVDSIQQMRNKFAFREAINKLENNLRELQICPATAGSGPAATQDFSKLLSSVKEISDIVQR
# UniProt Q00535, whole entry, looked up: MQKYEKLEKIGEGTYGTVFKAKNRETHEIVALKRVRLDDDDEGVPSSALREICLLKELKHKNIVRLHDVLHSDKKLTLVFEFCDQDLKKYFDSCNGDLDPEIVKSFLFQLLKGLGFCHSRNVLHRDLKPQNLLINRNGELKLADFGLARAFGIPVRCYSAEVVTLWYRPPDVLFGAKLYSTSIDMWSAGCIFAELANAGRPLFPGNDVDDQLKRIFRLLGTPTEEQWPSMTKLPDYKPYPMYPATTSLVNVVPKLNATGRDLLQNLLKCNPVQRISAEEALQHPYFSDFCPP
# UniProt O14965: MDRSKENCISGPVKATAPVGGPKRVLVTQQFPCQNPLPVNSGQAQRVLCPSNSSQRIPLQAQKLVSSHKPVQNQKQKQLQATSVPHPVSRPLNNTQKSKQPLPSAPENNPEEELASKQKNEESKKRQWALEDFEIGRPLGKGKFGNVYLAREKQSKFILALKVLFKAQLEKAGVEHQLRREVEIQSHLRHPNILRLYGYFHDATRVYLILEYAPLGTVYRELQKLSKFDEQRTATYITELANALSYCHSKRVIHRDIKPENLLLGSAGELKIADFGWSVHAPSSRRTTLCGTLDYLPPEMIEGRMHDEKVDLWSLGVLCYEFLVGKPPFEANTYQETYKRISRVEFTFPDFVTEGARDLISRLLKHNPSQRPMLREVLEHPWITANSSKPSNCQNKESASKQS
# UniProt Q16288, whole entry, looked up: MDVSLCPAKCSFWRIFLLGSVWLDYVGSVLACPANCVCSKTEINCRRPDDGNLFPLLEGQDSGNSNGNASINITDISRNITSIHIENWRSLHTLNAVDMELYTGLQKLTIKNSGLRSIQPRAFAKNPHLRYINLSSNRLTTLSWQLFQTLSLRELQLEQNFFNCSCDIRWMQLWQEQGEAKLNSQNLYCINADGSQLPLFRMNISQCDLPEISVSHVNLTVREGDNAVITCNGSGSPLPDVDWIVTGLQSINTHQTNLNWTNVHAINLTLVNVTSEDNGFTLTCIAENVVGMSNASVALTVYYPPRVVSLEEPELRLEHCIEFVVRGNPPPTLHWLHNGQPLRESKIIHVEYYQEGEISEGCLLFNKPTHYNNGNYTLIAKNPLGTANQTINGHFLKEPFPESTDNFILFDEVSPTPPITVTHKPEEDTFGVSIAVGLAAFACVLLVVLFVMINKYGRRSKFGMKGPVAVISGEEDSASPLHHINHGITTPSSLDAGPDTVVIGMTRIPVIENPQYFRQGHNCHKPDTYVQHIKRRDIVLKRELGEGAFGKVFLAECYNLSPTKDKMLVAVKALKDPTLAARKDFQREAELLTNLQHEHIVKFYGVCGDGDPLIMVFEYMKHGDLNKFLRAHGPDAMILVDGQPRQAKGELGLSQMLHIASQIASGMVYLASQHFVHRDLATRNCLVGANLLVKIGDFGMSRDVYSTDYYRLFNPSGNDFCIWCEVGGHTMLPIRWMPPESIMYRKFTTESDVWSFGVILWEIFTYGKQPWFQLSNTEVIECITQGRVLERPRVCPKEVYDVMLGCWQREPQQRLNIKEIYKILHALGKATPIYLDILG
# The list shows a part of the results. The calls rarely recur for the same compound in another form.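 In K562 cells expressing nanoluciferase-fused kinases, luminescence was recorded at 4 h intervals between 2 and 18 h, normalized as percent of control with DMSO at 100% and a positive control at 0%. A significant (2 sigma) signal drop marks a time point as decreased. The authors' rule for a hit is not shown and takes in more than the number of time points.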
# How the values were obtained:
# Experiment in all cases: number of time points (of 5) at which kinase-Nluc abundance scored as decreased, DMSO-normalised (count); higher = more persistent destabilization
# [1] = compound: CC(C)N(CCC(=O)c1ccc2ccccc2c1)Cc1ccccc1; conditions: 10 µM; K562; 2-18 h
# [2] = compound: CC(C)[C@@](C)(O)[C@@H]1CN(c2nc(-c3[nH]nc4ncccc34)c(F)cc2Cl)CCN1; conditions: 10 µM; K562; 2-18 h
# Torkinib = compound: CC(C)n1nc(-c2cc3cc(O)ccc3[nH]2)c2c(N)ncnc21 [Torkinib]; conditions: 2.5 µM; K562; 2-18 h
# [3] = compound: CCCCCC1CC1CC1CC1CCCCCCCC(=O)OC; conditions: 10 µM; K562; 2-18 h
# [4] = compound: CCCCCCCCCCCCc1ccc(S(=O)(=O)Nc2nncs2)cc1; conditions: 10 µM; K562; 2-18 h
# [5] = compound: CCCOc1ccc(C=C2SC(=O)NC2=O)cc1; conditions: 10 µM; K562; 2-18 h
# Sunitinib = compound: CCN(CC)CCNC(=O)c1c(C)[nH]c(/C=C2\C(=O)Nc3ccc(F)cc32)c1C [Sunitinib]; conditions: 2.5 µM; K562; 2-18 h
# Pelitinib = compound: CCOc1cc2ncc(C#N)c(Nc3ccc(F)c(Cl)c3)c2cc1NC(=O)/C=C/CN(C)C [Pelitinib]; conditions: 2.5 µM; K562; 2-18 h
# JNK Inhibitor VIII = compound: CCOc1nc(NC(=O)Cc2cc(OC)ccc2OC)cc(N)c1C#N [JNK Inhibitor VIII]; conditions: 10 µM; K562; 2-18 h
# [6] = compound: CC[C@@H]1C(=O)N(C)c2cnc(Nc3ccc(C(=O)NC4CCN(C)CC4)cc3OC)nc2N1C1CCCC1; conditions: 10 µM; K562; 2-18 h
# [7] = compound: CCc1cc2c(cc1-c1cnn(CC(=O)N(C)C)c1)C(C)(C)c1[nH]c3cc(C#N)ccc3c1C2=O; conditions: 2.5 µM; K562; 2-18 h
# Ripretinib = compound: CCn1c(=O)c(-c2cc(NC(=O)Nc3ccccc3)c(F)cc2Br)cc2cnc(NC)cc21 [Ripretinib]; conditions: 10 µM; K562; 2-18 h
# Sotrastaurin = compound: CN1CCN(c2nc(C3=C(c4c[nH]c5ccccc45)C(=O)NC3=O)c3ccccc3n2)CC1 [Sotrastaurin]; conditions: 2.5 µM; K562; 2-18 h
# [8] = compound: CC1(C)C(=O)N([C@H]2CCc3c(O)cccc32)c2nc(Nc3cccc(CN4CCCC4)c3)ncc21; conditions: 2.5 µM; K562; 2-18 h
# Motesanib (Diphosphate) = compound: CC1(C)CNc2cc(NC(=O)c3cccnc3NCc3ccncc3)ccc21 [Motesanib (Diphosphate)]; conditions: 2.5 µM; K562; 2-18 h
# Motesanib = compound: CC1(C)CNc2cc(NC(=O)c3cccnc3NCc3ccncc3)ccc21 [Motesanib]; conditions: 2.5 µM; K562; 2-18 h
# Dovitinib (lactate) = compound: CN1CCN(c2ccc3nc(-c4c(N)c5c(F)cccc5[nH]c4=O)[nH]c3c2)CC1 [Dovitinib (lactate)]; conditions: 2.5 µM; K562; 2-18 h
# Dovitinib = compound: CN1CCN(c2ccc3nc(-c4c(N)c5c(F)cccc5[nH]c4=O)[nH]c3c2)CC1 [Dovitinib]; conditions: 2.5 µM; K562; 2-18 h
# Sorafenib (Tosylate) = compound: CNC(=O)c1cc(Oc2ccc(NC(=O)Nc3ccc(Cl)c(C(F)(F)F)c3)cc2)ccn1 [Sorafenib (Tosylate)]; conditions: 10 µM; K562; 2-18 h
Target,number of time points [1],number of time points [2],number of time points (Torkinib),number of time points [3],number of time points [4],number of time points [5],number of time points (Sunitinib),number of time points (Pelitinib),number of time points (JNK Inhibitor VIII),number of time points [6],number of time points [7],number of time points (Ripretinib),number of time points (Sotrastaurin),number of time points [8],number of time points (Motesanib (Diphosphate)),number of time points (Motesanib),number of time points (Dovitinib (lactate)),number of time points (Dovitinib),number of time points (Sorafenib (Tosylate))
CSF1R (UniProt P07333),0,0,0,0,0,0,0,0,0,0,0,0,0,,,,,,
SRC (UniProt P12931),0,0,,0,0,0,,0,0,0,0,0,0,0,0,0,0,0,
PTK2 (UniProt Q05397),0,1,1,5,0,0,,0,0,2,0,0,0,2,0,0,,,0
PRKAA1 (UniProt Q13131),0,0,0,0,0,0,0,0,0,1,0,0,0,,0,0,0,0,0
EGFR_L861Q (UniProt P00533),0,0,,0,0,0,,,,,0,0,,3,,,0,0,
BTK (UniProt Q06187),0,0,0,0,0,0,0,0,0,,0,0,0,0,0,0,0,0,0
CDK2 (UniProt P24941),0,0,0,0,0,0,,0,0,0,0,0,0,0,0,0,0,0,0
EGFR (UniProt P00533),0,2,,0,0,0,,,,,0,0,,2,,,0,0,
EGFR_G719S_T790M (UniProt P00533),0,0,,0,0,0,,,,,0,0,,3,,,0,0,
FGFR1 (UniProt P11362),0,0,0,0,0,0,0,0,0,0,0,5,0,2,,,,,0
CSNK1A1 (UniProt P48729),0,0,0,0,0,0,,2,,0,0,0,0,0,0,0,0,0,0
AKT1 (UniProt P31749),0,0,0,,,0,0,0,0,0,0,0,0,0,0,0,0,0,0
EGFR_G719S (UniProt P00533),0,3,,0,0,0,,,,,0,0,,3,,,0,0,
EGFR_T790M (UniProt P00533),0,0,,0,0,0,,,,,0,0,,0,,,0,0,
ZAK (UniProt Q9NYL2),0,0,0,0,0,0,,0,0,1,0,0,0,0,0,0,0,0,0
LCK (UniProt P06239),0,0,0,0,0,0,,,0,0,0,0,0,0,,,,,

# Single values from the results shown:
# number of time points (Motesanib (Diphosphate)), PRKAA1 (UniProt Q13131) is entered as 0
# number of time points [3], CDK2 (UniProt P24941) is entered as 0

# (further entries)

Target,number of time points [1],number of time points [2],number of time points (Torkinib),number of time points [3],number of time points [4],number of time points [5],number of time points (Sunitinib),number of time points (Pelitinib),number of time points (JNK Inhibitor VIII),number of time points [6],number of time points [7],number of time points (Ripretinib),number of time points (Sotrastaurin),number of time points [8],number of time points (Motesanib (Diphosphate)),number of time points (Motesanib),number of time points (Dovitinib (lactate)),number of time points (Dovitinib),number of time points (Sorafenib (Tosylate))
LYN (UniProt P07948),0,0,0,0,0,0,0,0,0,0,0,0,0,,,,,,0
CSNK1D (UniProt P48730),0,0,0,0,0,0,0,0,0,,0,0,0,0,0,0,0,0,0
RET (UniProt P07949),0,0,0,0,0,0,1,0,0,2,0,0,0,3,,,,,0
BLK (UniProt P51451),0,0,0,0,0,0,1,0,,,,0,,3,0,0,0,0,0
DDR1 (UniProt Q08345),0,2,0,0,0,0,3,0,0,1,0,0,0,4,,,0,0,0
BRAF (UniProt P15056),0,0,0,3,2,0,0,0,0,0,0,0,0,1,,,0,0,
RET_M918T (clone: RET_mut) (UniProt P07949),0,0,0,0,0,0,0,0,0,0,0,0,0,3,,,,,0
ABL1 (UniProt P00519),0,3,,0,0,0,,,0,4,0,0,0,,,,,,
EGFR_L858R (UniProt P00533),0,0,,0,0,0,,,,,0,0,,3,,,0,0,
EGFR_L718V (UniProt P00533),0,0,,0,0,0,,,,,0,0,,1,,,0,0,
SYK (UniProt P43405),0,0,0,0,0,0,,0,0,,0,0,0,0,0,0,0,0,0
CDK5 (UniProt Q00535),0,0,0,0,0,0,,0,0,0,0,0,0,0,0,0,,,0
BMX (UniProt P51813),0,,,0,0,,0,,0,4,0,0,0,1,0,0,0,2,0
AURKA (UniProt O14965),,3,0,,,0,0,0,0,0,0,0,0,3,0,0,0,0,0
NTRK3 (UniProt Q16288),0,2,0,0,0,0,,0,0,1,0,0,0,3,0,0,,,
